{
  "source": "patent US20230310654A1",
  "about": "(priority 2020, published 2023)",
  "tested_on": "juvenile mice",
  "conditions": "mouse, in vivo",
  "data": [
    {"substance": "conduritol-β-epoxide [CBE]", "values": [
      {"measurement": "open field assay", "result": "no general motor deficits"}
    ]}
  ]
}
